This note sets out measurements from PubChem BioAssay AID493014 (National Center for Advancing Translational Sciences (NCATS), 2011).

This test can be described thus: qHTS Assay to Find Inhibitors of Chronic Active B-Cell Receptor Signaling. The following applies: ABC-DLBCL IkBa-CBG/CBR reporter, luminescence ratio (green luciferase fused to IkBa over red control in TMD8 lymphoma cells), 4 h. In short, it runs like this: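 TMD8 ABC-DLBCL cells carrying doxycycline-inducible green luciferase fused to IkappaBalpha plus unfused red luciferase were exposed to compounds (up to 46 uM) for 4 hrs at 37C. Activity came from the overlap-corrected green/red luminescence ratio.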
On the technique in general: Quantitative high-throughput screening tests each substance at several concentrations.

[1] abbreviates: measured here: IkBa-CBG green luminescence.
Where [2] appears, read: measured here: CBR red luminescence, cell number.

The other results are listed elsewhere or left out. Shown are side measurements of this screen, not its main read-out; they come without a call. Most of these compounds were active or inconclusive in the main read-out, so they are no random draw. Potencies come from curve fits of mixed quality, noted in brackets.

A word on the AC50: it is the concentration at which the activity in the assay is half-maximal. Regarding `COc1cccc(NC(=O)COC(=O)c2ccc(C)c(S(=O)(=O)N3CCCCC3)c2)c1`, under setting [1], the AC50 was 18.4 µM [falling, partial curve, poor fit].

Regarding `CN1CCCC(CC2c3ccccc3Sc3ccccc32)C1` (stereo not given), under setting [2], the AC50 was 11.6 µM [falling, partial curve, poor fit].

Consider `OC1(C#CCN2CCCC2)c2ccccc2-c2ccccc21`, for which the AC50 under setting [2] was 0.0891 µM [falling, full curve, poor fit].

Take `Brc1ccc(C2=CC(c3ccco3)n3nnnc3N2)cc1` (stereo not given): the AC50 under setting [2] was 11.2 µM [rising, partial curve, poor fit].

As to `O=C(O)c1ccccc1NS(=O)(=O)c1ccc(NN=Cc2cccc(Cl)c2)c([N+](=O)[O-])c1`, the AC50 under setting [2] is 23.1 µM [rising, single point].

Take `CCCOc1ccc(Cn2ccnc2)cc1[N+](=O)[O-]`: the AC50 under setting [1] was 25.9 µM [falling, partial curve, poor fit].

For `COc1ccc(Nc2cc(C)nc(-n3nc(C)cc3C)n2)cc1`, the AC50 is, setting by setting: under setting [2], 23.1 µM [rising, single point]; under setting [1], 11.6 µM [falling, partial curve].

In the case of `CCOC(=O)c1c(C)[nH]c(C(=O)OCc2c(C)noc2C)c1C`, the concentration at half-maximal activity (AC50) under setting [2] was 35.5 µM [falling, single point].

Turning to `CCCCC(=O)Nc1nnc(-c2ccc(OC)cc2)s1`, the AC50 under setting [2] is 1.03 µM [rising, full curve, poor fit].

Consider `Cc1ccccc1CN1C(=O)c2ccccc2Sc2ccc(C(=O)NCCCN3CCOCC3)cc21`, for which, under setting [2], the AC50 is 22.4 µM [falling, partial curve, poor fit].

Regarding `CC(C)(CO)CNC(=O)CCc1nnc(CCCc2ccccc2)o1`, under setting [2], the concentration at half-maximal activity (AC50) is 3.98 µM [rising, partial curve, poor fit].

For `COc1cc(CC(=O)Nc2nc(-c3ccccc3)c(C(C)=O)s2)cc(OC)c1OC`, the AC50 under setting [2] is 12.6 µM [falling, partial curve].

Consider `COc1ccc(-c2cc(C(F)(F)F)nc(N)n2)cc1`, for which, under setting [2], the half-maximal activity concentration (AC50) is 8.91 µM [rising, partial curve].

Turning to `Cc1ccc2cc(C#N)c(SCC(=O)NNC(=O)Cc3ccccc3)nc2c1`, the concentration at half-maximal activity (AC50) under setting [2] was 8.2 µM [falling, partial curve].

As for `COC(=O)c1[nH]c2cccc(OC)c2c1NC(=O)CN1CCN(c2cccc(OC)c2)C(C)C1` (stereo not given), the concentration at half-maximal activity (AC50) under setting [2] was 2.59 µM [rising, full curve].

Take `CCOc1ccc(NC(=O)CSc2cn[nH]n2)cc1`: the concentration at half-maximal activity (AC50) under setting [2] was 16.4 µM [falling, partial curve].

As to `COc1ccc(Cn2nnc(C(=O)Nc3ccc(F)cc3)c2N)cc1`, under setting [2], the concentration at half-maximal activity (AC50) was 5.01 µM [falling, partial curve, poor fit].

Consider `Cc1ccc(S(=O)(=O)N(C)c2ccccc2)cc1`, for which, under setting [2], the AC50 was 0.13 µM [rising, full curve, poor fit].

Consider `Cc1csc(N/N=C/c2c(F)cccc2Cl)n1`, for which, under setting [2], the AC50 is 0.501 µM [rising, full curve, poor fit].

On to `CCN1CCN(c2ccc(S(=O)(=O)N3CCCCC3)cc2NC(=O)c2ccc([N+](=O)[O-])o2)CC1`, for which the concentration at half-maximal activity (AC50) under setting [2] is 20.6 µM [falling, single point].

In the case of `COc1ccc(CCNC(=O)c2ccc(OCc3c(C)noc3C)cc2)cc1OC`, under setting [2], the AC50 is 0.58 µM [rising, full curve, poor fit].

Turning to `Cc1cc(C(=O)CN2C(=O)NC(Cc3c[nH]c4ccccc34)C2=O)c(C)n1C` (stereo not given), the concentration at half-maximal activity (AC50) under setting [2] was 12.6 µM [rising, partial curve].

`CCN(CC(=O)NCc1cccs1)C(=O)c1ccc([N+](=O)[O-])o1`: the half-maximal activity concentration (AC50) under setting [2] was 3.26 µM [rising, full curve].

As for `COc1ccc(C2Nc3ccccc3C(=O)N2Cc2ccccc2)cc1COc1ccc(Cl)cc1Cl` (stereo not given), under setting [2], the half-maximal activity concentration (AC50) was 8.2 µM [rising, partial curve, poor fit].

As to `CCOC(=O)c1c(C)[nH]c(C(=O)OCC(=O)NC(C)C)c1C`, the AC50 under setting [2] was 6.51 µM [falling, full curve, poor fit].

`c1ccn(-c2ccc(N3CCOCC3)cc2)c1`: the AC50 under setting [2] was 0.282 µM [rising, full curve, poor fit].

`CS(=O)(=O)c1ccc2nc(NC(=O)c3ccc(N4C(=O)CCC4=O)cc3)sc2c1`: the half-maximal activity concentration (AC50) under setting [2] is 8.91 µM [rising, partial curve, poor fit].

As to `COc1c(OC(C)=O)ccc(/C=C/c2ccc3cccc(OCc4ccccc4)c3n2)c1[N+](=O)[O-]`, the AC50 under setting [2] is 16.4 µM [rising, single point].

Turning to `Cc1[nH][nH]c(=O)c1C(c1ccc2c(c1)OCO2)c1c(C)[nH][nH]c1=O`, the AC50 under setting [2] is 10 µM [falling, partial curve].

For the molecule `COc1nc(-c2ccccc2Cl)ccc1C#N`, under setting [2], the half-maximal activity concentration (AC50) is 23.1 µM [rising, single point].

For `COCCn1c(=S)[nH]c2cc(C(=O)N3CCc4ccccc43)ccc2c1=O`, the AC50 is, setting by setting: under setting [2], 2.06 µM [falling, full curve]; under setting [1], 5.17 µM [rising, partial curve, poor fit].

Regarding `O=C(CSc1nnnn1-c1ccc(O)cc1)Nc1ccc(N2CCOCC2)c(Cl)c1`, the AC50 under setting [2] is 14.6 µM [rising, partial curve, poor fit].

In the case of `CCCCCCCCCCNC(=O)C(=O)Nc1ccccn1`, the concentration at half-maximal activity (AC50) under setting [2] is 1.46 µM [rising, partial curve, poor fit].

With `COc1ccccc1-n1c(CNc2ccc(F)cc2)nnc1SCC(=O)Nc1cc(C)on1`, the half-maximal activity concentration (AC50) under setting [2] is 0.461 µM [falling, full curve].

`CCOC(=O)c1ccc(NC(=O)c2cc3ccccc3o2)cc1`: under setting [2], the half-maximal activity concentration (AC50) is 0.447 µM [falling, full curve].

As to `CCOc1ccccc1NC(=O)C(c1ccccc1)N1CCN(CC(=O)N2CCCC2)CC1` (stereo not given), the half-maximal activity concentration (AC50) under setting [2] was 0.259 µM [rising, partial curve, poor fit].

`COc1cccc2cc(C(N)=O)oc12`: the half-maximal activity concentration (AC50) under setting [2] is 17.8 µM [falling, partial curve, poor fit].

Consider `COc1ccc(/C=C2/SC(=S)N(CCCC(=O)N3CCN(C)CC3)C2=O)cc1`, for which the AC50 under setting [2] is 1.41 µM [falling, full curve].

As for `CCCC(=O)OC(C(=O)Nc1cc(C(F)(F)F)ccc1Cl)c1ccccc1` (stereo not given), the AC50 under setting [2] was 4.11 µM [rising, full curve, poor fit].

For the molecule `CC(C)(C)c1ccc(OC(=O)Nc2ccc(O)c(C(=O)O)c2)cc1`, under setting [2], the AC50 was 4.47 µM [rising, full curve, poor fit].

For `CCN(CC)S(=O)(=O)c1ccc(N2CCN(C)CC2)c(NC(=O)COc2ccc(F)cc2Cl)c1`, the AC50 under setting [2] was 0.58 µM [falling, full curve, poor fit].

As for `Nc1nc2ccccc2n1C(=O)CCc1ccccc1`, the AC50 under setting [2] is 2.31 µM [falling, full curve, poor fit].

For the molecule `CCn1c(SCC(=O)Nc2ccc(C)cc2)nnc1-c1ccccn1`, under setting [2], the AC50 is 20 µM [falling, single point].

Regarding `Oc1ccc(CCNc2ncnc3ccc(Cl)cc23)cc1`, the AC50 under setting [2] was 3.55 µM [falling, partial curve, poor fit].

On to `O=C(COc1cccc2ccccc12)N/N=C/c1ccccc1OCc1ccc(C(=O)O)cc1`, for which the half-maximal activity concentration (AC50) under setting [2] was 2.51 µM [falling, partial curve, poor fit].

Turning to `O=C(CSc1ccc(Cl)cc1)Nc1ccc(N2CCN(c3ccccc3)CC2)c(F)c1`, under setting [2], the half-maximal activity concentration (AC50) is 35.5 µM [falling, partial curve, poor fit].

Consider `C=CCc1ccc(OCCCCN2CC(C)OC(C)C2)c(OC)c1` (stereo not given), for which the AC50 under setting [2] is 1.03 µM [rising, full curve, poor fit].

With `O=C(/C=C/c1cccc([N+](=O)[O-])c1)NCCSc1ccccc1`, under setting [2], the AC50 is 14.1 µM [falling, partial curve].

For the molecule `N#Cc1cc2ccccc2nc1SCC(=O)NC1CC1`, under setting [2], the AC50 was 10 µM [falling, partial curve].

Regarding `CCOC(=O)C1=NN(C(=O)Nc2cccc(C(F)(F)F)c2)C2C(=O)N(c3cccc(C(F)(F)F)c3)C(=O)C12` (stereo not given), the AC50 under setting [2] is 0.00461 µM [rising, full curve, poor fit].

For the molecule `O=C(Cc1ccccc1)Nc1nc(-c2ccc(F)c(F)c2)cs1`, the concentration at half-maximal activity (AC50) under setting [2] is 20 µM [rising, partial curve, poor fit].

Turning to `O=C(CCCSc1nc2sc3c(c2c(=O)[nH]1)CCC3)NCCCO`, under setting [2], the AC50 is 8.91 µM [falling, partial curve].

As for `Cc1ccc(C(C)C)c(OCCNC(=O)c2ccccc2O)c1`, under setting [2], the concentration at half-maximal activity (AC50) is 35.5 µM [falling, single point].

In the case of `Cc1cc(C(=O)OCC(=O)Nc2ccc(F)c(F)c2)c(C)o1`, the concentration at half-maximal activity (AC50) under setting [2] is 2.91 µM [falling, single point].

Take `C/C(=N\NC(=O)c1ccccc1F)c1ccc2c(c1)Nc1ccccc1S2`: the AC50 under setting [2] was 9.2 µM [falling, partial curve, poor fit].

In the case of `O=C(Cn1cc(-c2nnnn2-c2ccc(Cl)cc2)c(=O)c2ccccc21)c1ccccc1`, the AC50 under setting [2] is 7.08 µM [falling, partial curve, poor fit].

Take `c1ccc(CSc2nnc(-c3ccco3)o2)cc1`: the half-maximal activity concentration (AC50) under setting [2] was 8.91 µM [rising, partial curve, poor fit].

In the case of `COc1cccc(C2c3[nH]c4ccccc4c3CCN2C(=O)c2ccccc2F)c1OC` (stereo not given), the half-maximal activity concentration (AC50) under setting [2] is 12.6 µM [falling, single point].

Consider `CCNC(=S)N1CCN(C(c2ccccc2)c2ccccc2)CC1`, for which the concentration at half-maximal activity (AC50) under setting [2] is 32.6 µM [falling, single point].

As to `Cc1cc(C)c2c(N)c(C(=O)Nc3ccc([N+](=O)[O-])cc3)sc2n1`, the concentration at half-maximal activity (AC50) under setting [2] is 0.447 µM [rising, full curve, poor fit].

As for `CS(=O)(=O)c1ccccc1-c1nnc(NC(=O)c2ccc(S(=O)(=O)N3CCCC3)cc2)o1`, the concentration at half-maximal activity (AC50) under setting [2] was 25.9 µM [falling, single point].

Consider `O=C(NNC(=O)c1ccccc1O)c1ccc(Br)cc1`, for which the half-maximal activity concentration (AC50) under setting [2] is 1.26 µM [falling, full curve].

Regarding `Cc1ccc(NC(=O)c2cnc(SCC(=O)N3CCCc4ccccc43)n(C)c2=O)cc1C`, under setting [2], the AC50 was 11.2 µM [rising, partial curve, poor fit].
